Some of the results follow.

Amino acid sequences for entries named in this document (tags omitted). A change or cut given only in a name is not applied to a line headed by its entry.
UniProt P54132: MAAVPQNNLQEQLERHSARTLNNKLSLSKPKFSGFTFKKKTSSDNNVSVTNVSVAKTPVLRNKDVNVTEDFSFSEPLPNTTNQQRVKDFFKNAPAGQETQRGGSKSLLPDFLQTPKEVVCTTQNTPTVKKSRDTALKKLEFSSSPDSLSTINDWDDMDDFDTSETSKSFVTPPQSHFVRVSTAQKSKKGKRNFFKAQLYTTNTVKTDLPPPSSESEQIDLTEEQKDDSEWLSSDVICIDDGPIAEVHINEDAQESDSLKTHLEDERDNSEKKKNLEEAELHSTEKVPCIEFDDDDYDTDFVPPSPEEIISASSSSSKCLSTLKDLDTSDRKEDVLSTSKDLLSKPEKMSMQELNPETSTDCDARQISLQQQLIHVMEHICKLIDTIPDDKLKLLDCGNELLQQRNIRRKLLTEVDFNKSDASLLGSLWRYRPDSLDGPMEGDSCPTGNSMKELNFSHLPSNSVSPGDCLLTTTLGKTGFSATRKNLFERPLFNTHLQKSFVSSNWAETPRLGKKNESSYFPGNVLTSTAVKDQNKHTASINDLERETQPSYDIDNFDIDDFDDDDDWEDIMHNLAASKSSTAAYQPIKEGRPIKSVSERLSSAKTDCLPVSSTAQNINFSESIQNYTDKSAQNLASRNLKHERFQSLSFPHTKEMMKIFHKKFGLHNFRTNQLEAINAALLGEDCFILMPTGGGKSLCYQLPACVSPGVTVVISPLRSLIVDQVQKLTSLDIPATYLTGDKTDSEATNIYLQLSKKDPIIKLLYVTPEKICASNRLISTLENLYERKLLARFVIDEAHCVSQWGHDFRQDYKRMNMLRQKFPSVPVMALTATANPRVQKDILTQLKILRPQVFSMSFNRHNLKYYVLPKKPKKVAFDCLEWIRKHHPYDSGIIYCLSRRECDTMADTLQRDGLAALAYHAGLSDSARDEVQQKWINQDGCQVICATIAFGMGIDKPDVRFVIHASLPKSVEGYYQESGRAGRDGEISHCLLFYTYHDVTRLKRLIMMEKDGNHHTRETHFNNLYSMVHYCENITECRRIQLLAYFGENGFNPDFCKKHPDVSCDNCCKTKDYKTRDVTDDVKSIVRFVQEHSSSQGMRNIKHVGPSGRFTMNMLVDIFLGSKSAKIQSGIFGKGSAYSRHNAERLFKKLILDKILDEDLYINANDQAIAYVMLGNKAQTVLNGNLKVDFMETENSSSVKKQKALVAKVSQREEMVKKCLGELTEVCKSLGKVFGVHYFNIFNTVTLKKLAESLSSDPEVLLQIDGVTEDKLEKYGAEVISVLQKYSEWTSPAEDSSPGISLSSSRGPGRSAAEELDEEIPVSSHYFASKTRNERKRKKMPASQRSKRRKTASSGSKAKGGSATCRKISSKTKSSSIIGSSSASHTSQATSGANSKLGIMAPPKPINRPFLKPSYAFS
UniProt Q5W111: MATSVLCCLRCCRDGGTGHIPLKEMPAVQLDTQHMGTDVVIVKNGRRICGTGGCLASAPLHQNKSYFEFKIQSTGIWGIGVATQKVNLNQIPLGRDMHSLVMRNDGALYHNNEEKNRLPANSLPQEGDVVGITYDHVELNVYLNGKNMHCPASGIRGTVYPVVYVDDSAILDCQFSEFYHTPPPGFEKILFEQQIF
UniProt O43681: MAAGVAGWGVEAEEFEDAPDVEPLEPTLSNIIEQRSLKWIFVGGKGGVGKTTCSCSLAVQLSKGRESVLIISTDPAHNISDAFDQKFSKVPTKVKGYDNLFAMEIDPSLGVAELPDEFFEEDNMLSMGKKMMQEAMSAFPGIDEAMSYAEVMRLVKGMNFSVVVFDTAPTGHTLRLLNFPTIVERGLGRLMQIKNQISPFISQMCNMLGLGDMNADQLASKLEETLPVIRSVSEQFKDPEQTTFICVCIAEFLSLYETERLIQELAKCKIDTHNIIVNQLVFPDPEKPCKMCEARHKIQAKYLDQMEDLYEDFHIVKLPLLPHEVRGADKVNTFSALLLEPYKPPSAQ
UniProt Q8IZQ5, whole entry: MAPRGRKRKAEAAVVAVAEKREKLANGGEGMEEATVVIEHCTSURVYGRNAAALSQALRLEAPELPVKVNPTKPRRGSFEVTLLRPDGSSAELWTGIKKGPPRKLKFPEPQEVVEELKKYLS
UniProt P21283, whole entry: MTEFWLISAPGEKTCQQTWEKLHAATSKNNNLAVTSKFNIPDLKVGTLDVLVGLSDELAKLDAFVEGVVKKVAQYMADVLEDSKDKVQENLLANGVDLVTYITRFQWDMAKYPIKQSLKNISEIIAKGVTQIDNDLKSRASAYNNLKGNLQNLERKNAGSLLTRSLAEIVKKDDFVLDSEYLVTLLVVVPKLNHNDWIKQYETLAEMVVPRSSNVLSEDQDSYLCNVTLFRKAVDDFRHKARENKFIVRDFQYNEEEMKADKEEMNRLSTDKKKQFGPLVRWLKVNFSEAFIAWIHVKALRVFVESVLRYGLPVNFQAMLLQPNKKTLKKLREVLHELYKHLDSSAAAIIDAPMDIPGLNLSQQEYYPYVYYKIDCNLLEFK
UniProt Q9NYF8, whole entry: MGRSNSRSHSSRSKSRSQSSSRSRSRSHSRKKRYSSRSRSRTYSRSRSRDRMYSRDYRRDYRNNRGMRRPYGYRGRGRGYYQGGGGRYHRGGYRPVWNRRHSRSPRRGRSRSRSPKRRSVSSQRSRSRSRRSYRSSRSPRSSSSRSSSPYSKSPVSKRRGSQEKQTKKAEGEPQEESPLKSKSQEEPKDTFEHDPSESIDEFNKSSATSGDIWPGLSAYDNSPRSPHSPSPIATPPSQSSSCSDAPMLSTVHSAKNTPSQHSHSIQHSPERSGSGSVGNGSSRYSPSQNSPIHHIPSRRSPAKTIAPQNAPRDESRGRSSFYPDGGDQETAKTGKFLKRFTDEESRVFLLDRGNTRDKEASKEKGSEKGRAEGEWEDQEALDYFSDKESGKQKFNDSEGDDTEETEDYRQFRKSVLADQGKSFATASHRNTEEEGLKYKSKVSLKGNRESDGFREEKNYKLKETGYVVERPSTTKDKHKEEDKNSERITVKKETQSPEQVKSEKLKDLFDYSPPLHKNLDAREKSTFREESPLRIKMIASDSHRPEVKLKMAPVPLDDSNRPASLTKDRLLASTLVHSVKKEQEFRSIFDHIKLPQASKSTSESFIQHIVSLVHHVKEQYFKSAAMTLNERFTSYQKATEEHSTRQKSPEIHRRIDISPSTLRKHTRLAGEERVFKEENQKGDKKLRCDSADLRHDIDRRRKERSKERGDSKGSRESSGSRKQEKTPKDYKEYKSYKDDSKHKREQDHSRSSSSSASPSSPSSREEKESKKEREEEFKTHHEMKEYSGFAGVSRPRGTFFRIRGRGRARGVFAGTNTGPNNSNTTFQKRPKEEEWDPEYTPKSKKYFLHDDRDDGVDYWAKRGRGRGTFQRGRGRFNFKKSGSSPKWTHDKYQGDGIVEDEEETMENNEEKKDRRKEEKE
UniProt Q9Y2Q0: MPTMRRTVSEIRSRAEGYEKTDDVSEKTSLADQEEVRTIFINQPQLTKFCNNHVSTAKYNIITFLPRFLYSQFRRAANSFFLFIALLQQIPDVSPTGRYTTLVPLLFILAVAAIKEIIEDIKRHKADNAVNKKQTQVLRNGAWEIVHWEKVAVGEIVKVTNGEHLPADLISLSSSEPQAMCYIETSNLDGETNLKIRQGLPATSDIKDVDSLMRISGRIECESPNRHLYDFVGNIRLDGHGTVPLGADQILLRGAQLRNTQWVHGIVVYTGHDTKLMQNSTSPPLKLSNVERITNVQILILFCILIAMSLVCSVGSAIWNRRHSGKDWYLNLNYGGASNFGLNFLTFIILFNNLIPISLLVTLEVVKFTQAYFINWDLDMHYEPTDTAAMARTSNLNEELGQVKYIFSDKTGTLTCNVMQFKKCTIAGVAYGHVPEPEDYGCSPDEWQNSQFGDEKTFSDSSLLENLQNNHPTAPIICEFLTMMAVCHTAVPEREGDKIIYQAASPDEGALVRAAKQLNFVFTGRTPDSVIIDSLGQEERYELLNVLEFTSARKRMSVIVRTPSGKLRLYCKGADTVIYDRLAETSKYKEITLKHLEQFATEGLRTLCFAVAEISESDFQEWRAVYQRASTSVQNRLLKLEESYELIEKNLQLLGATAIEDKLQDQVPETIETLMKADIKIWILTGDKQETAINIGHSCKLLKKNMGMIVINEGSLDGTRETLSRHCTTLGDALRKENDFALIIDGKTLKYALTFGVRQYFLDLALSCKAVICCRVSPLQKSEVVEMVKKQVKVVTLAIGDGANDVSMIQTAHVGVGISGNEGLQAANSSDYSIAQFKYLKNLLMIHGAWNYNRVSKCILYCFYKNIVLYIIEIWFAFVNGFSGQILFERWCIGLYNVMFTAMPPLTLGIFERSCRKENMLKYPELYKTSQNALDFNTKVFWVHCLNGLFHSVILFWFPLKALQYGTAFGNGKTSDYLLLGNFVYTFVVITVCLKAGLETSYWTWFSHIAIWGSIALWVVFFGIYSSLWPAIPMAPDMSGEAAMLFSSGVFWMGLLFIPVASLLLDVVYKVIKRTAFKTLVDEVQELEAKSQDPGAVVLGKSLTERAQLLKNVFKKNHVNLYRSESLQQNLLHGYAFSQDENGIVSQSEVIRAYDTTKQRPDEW
UniProt Q10589, whole entry: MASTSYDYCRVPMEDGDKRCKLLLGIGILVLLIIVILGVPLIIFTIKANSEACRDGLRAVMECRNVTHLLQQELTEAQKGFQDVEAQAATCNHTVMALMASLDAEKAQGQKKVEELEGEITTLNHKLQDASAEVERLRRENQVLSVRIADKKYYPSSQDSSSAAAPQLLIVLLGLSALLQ
UniProt Q13825: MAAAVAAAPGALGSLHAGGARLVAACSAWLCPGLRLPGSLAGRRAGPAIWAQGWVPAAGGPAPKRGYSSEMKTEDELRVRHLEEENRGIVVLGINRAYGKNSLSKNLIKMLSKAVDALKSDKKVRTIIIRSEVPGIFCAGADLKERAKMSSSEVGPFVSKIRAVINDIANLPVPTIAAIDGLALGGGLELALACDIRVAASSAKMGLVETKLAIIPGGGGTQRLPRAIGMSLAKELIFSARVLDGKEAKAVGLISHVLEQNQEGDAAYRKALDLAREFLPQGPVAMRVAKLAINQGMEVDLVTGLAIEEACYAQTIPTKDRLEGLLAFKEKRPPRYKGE
UniProt Q96GD4, whole entry: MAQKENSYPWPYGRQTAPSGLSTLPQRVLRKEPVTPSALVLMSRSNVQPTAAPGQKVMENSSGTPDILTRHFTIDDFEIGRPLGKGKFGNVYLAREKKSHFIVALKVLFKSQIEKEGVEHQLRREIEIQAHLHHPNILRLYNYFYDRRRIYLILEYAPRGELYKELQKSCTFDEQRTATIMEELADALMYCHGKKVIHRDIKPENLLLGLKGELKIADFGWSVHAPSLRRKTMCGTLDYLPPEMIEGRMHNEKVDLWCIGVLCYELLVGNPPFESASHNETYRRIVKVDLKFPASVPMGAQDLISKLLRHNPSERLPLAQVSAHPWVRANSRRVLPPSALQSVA
UniProt P25705: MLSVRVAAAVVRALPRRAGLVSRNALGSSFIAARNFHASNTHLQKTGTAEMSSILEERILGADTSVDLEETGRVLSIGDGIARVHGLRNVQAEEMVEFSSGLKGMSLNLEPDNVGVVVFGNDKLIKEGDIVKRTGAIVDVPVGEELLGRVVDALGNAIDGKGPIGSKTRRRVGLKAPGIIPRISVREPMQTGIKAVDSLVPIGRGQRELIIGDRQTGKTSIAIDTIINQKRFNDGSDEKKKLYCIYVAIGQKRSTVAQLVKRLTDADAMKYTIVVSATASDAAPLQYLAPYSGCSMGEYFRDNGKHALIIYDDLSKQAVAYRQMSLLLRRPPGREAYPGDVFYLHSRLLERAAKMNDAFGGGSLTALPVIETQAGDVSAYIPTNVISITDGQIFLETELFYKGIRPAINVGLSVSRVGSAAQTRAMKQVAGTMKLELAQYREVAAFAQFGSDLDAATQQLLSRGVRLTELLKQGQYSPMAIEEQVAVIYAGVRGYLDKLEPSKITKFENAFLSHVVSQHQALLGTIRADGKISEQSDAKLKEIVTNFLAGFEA
UniProt P10415, whole entry: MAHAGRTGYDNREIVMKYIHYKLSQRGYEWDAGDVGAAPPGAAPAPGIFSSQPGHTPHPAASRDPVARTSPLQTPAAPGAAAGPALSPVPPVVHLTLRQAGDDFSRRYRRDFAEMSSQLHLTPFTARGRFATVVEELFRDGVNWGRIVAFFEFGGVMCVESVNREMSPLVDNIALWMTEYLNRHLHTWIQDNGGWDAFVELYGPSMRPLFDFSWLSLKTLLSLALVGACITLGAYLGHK
UniProt Q9BUA3: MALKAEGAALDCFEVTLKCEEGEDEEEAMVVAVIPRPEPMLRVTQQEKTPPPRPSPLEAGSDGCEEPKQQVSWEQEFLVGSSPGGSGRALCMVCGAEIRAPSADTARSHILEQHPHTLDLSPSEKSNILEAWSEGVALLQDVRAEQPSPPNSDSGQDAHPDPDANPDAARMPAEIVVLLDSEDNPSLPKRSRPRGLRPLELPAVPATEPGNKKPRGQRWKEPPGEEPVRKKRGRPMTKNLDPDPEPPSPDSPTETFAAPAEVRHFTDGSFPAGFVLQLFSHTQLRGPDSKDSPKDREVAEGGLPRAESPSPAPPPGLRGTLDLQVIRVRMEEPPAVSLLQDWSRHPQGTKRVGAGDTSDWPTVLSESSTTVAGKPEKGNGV

Compound in the test: COc1ccc(Cn2ccc3ccc(C(=O)NO)cc32)cc1
Kind of test: dose-dependent thermal stabilisation call (2D-TPP, DLPTP, 10% FDR) (binary (1 = stabilised)); higher = stabilised by the compound. As to conditions: system: HL-60 intact cells; concentration range 0.04-10 µM.
For ATP1B1 (UniProt P05026), the “dose-dependent thermal stabilisation call” value is inactive: 0.

Consider ARPC2 (UniProt O15144), for which the “dose-dependent thermal stabilisation call” value is inactive: 0.

Turning to BIRC2 (UniProt Q13490), the “dose-dependent thermal stabilisation call” value is inactive: 0.

Take BLM (UniProt P54132): the “dose-dependent thermal stabilisation call” value is inactive: 0.

As for C13ORF1 (UniProt Q5W111), the “dose-dependent thermal stabilisation call” value is inactive: 0.

Consider ASL (UniProt P04424), for which the “dose-dependent thermal stabilisation call” value is inactive: 0.

For BTN2A1 (UniProt Q7KYR7), the “dose-dependent thermal stabilisation call” value was inactive: 0.

In the case of ASNA1 (UniProt O43681), the “dose-dependent thermal stabilisation call” value is inactive: 0.

In the case of UniProt B3GNT1, the “dose-dependent thermal stabilisation call” value is inactive: 0.

With BRAP (UniProt Q7Z569), the “dose-dependent thermal stabilisation call” value was inactive: 0.

As to C11ORF31 (UniProt Q8IZQ5), the “dose-dependent thermal stabilisation call” value was inactive: 0.

With BOLA3 (UniProt Q53S33), the “dose-dependent thermal stabilisation call” value is inactive: 0.

As to B2M (UniProt P61769), the “dose-dependent thermal stabilisation call” value is inactive: 0.

As for ATP6V1C1 (UniProt P21283), the “dose-dependent thermal stabilisation call” value was inactive: 0.

For the target BCLAF1 (UniProt Q9NYF8), the “dose-dependent thermal stabilisation call” value was inactive: 0.

As to ATP8A1 (UniProt Q9Y2Q0), the “dose-dependent thermal stabilisation call” value is inactive: 0.

On to BST2 (UniProt Q10589), for which the “dose-dependent thermal stabilisation call” value was inactive: 0.

BRD4 (UniProt O60885): the “dose-dependent thermal stabilisation call” value was inactive: 0.

AUH (UniProt Q13825): the “dose-dependent thermal stabilisation call” value was inactive: 0.

Regarding ASF1B (UniProt Q9NVP2), the “dose-dependent thermal stabilisation call” value is inactive: 0.

As to AURKB (UniProt Q96GD4), the “dose-dependent thermal stabilisation call” value was inactive: 0.

As for ATP5A1 (UniProt P25705), the “dose-dependent thermal stabilisation call” value was inactive: 0.

For BCL2 (UniProt P10415), the “dose-dependent thermal stabilisation call” value is inactive: 0.

Turning to BRMS1 (UniProt Q9HCU9), the “dose-dependent thermal stabilisation call” value was inactive: 0.

Consider BCL10 (UniProt O95999), for which the “dose-dependent thermal stabilisation call” value is inactive: 0.

Turning to ARMET (UniProt P55145), the “dose-dependent thermal stabilisation call” value is inactive: 0.

As to C11ORF84 (UniProt Q9BUA3), the “dose-dependent thermal stabilisation call” value is inactive: 0.

The values above are taken from the supplement of paper PMC7666118.
